US20220153832A1
No constants are given. Whether binding was seen depends on the method and setting. Some results given as binding are weak or reduced against the parent protein; the word gives no strength.

Chains of the proteins cited; added tags and fusions are not shown. Lines headed by an entry give the natural chain unless they say otherwise; changes in a name come on top.
UniProt Q9UEW3: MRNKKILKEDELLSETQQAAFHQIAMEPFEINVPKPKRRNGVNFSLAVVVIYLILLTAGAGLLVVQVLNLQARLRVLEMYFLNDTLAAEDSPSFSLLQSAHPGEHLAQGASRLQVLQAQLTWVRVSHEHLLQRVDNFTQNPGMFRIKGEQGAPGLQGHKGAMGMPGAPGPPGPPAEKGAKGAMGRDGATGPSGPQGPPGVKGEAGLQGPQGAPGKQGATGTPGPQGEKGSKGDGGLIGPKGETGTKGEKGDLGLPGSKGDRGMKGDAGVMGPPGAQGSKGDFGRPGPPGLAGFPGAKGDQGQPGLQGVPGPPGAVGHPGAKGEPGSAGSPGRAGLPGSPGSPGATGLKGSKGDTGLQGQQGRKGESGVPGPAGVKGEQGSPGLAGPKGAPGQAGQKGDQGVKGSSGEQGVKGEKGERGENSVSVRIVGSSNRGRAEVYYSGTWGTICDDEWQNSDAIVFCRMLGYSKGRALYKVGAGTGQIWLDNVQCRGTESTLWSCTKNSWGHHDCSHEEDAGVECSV

Assays:
[1] = molecular target: N-terminally polyhistidine tagged human MARCO ECD (147-520), recombinant (human) (UniProt Q9UEW3); assay: ELISA on hMARCO ECD with 2 mM Ca2+, A450-A620
[2] = molecular target: N-terminally polyhistidine tagged human MARCO ECD (147-520), recombinant (human) (UniProt Q9UEW3); assay: ELISA on hMARCO ECD with 2 mM EDTA, A450-A620
[3] = molecular target: N-terminally polyhistidine tagged human MARCO ECD (147-520), recombinant (human) (UniProt Q9UEW3); assay: calcium dependency ELISA, with and without 2 mM EDTA

Measured: binding

B1: PI-3032-AB (antibody, human IgG1, kappa, V domains shown)
VH: EVQLVESGGGLVQPGGSLRLSCAASKFTFSNYGMNWIRQAPGKGLEWIALIYYNSNNKYYADSVKGRFTISRDNSKNTLYLQMNSLRAEDTAVYYCAKSLTGGSDYFDSWGQGTLVTVSS
VL: DIQMTQSPSSLSASVGDRVTITCRASKSIGTFLAWYQQKPGKAPKLLIYSGSTLESGVPSRFSGSGSGTDFTLTISSLQPEDFATYYCQQHDEYPFTFGQGTKLEIKR
binds: all assays above
